PubChem BioAssay AID686937 – Drosophila RNAi Screening Center – 2013
The screen tested about 23,000 reagents; this is a random part of those with a known target gene and a result. 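Reduced-secretion tags in replicate 1 do not always agree with the z-scores; no criterion for assigning the tags was given.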 The numbers tell different reagents against one gene apart. A plus sign joins genes that one reagent is predicted to hit. Not all columns of the deposit are shown. Reagent sequences are not shown. The record does not give: the amount of reagent.

Test: 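Genes in the fly needed for secretion of protein constitutively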 (primary screen)
Cells: Drosophila S2 cells expressing secreted horseradish peroxidase
Reagents: long dsRNA against Drosophila genes
Time to read-out: about 5.5 days (5 days dsRNA, then 12 h reporter induction)
Treatment: reporter expression induced after 5 days of dsRNA, read 12 h later; inducer not stated
Detection: 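After 5 days of dsRNA and 12 h of reporter induction, medium peroxidase read by chemiluminescence and scored as per-plate z-score; higher values mean more reporter released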
Scale: z-score: higher = more reporter secreted into medium

For sle + CG12592, what was measured?
z-score, replicate 1: -0.1

For CG12078 (GeneID 38401), how do the results read?
z-score, replicate 1: 0.3

Which result is listed for CG42726 + CG42727?
z-score, replicate 1: 0.36

With barr (GeneID 35287), how do the results read?
z-score, replicate 1: -0.6

For CG31921 (GeneID 319027), what does the deposit list?
z-score, replicate 1: 0.62

For CG4477 (GeneID 39058), what does the deposit list?
z-score, replicate 1: 0.53

What is on record for CG31717 (GeneID 318911)?
z-score, replicate 1: 0.66

With CG42241 (retired record) (GeneID 7354372), how do the results read?
z-score, replicate 1: 0.22

With nerfin-2 (GeneID 41235), what does the deposit list?
z-score, replicate 1: 0.36

For sug (GeneID 36424), what does the deposit list?
z-score, replicate 1: -0.01

With Hsp60D (GeneID 34763), how do the results read?
z-score, replicate 1: 0.74

What is on record for CG6345 (GeneID 41271)?
z-score, replicate 1: 0.33

How did the screen score CG32036 (GeneID 39105)?
z-score, replicate 1: 0.48

What is on record for CG5068 (GeneID 39032)?
z-score, replicate 1: 0.26

How did the screen score Taf7 (GeneID 40934)?
z-score, replicate 1: -0.63

What did the screen give for mamo (GeneID 32353) #1?
z-score, replicate 1: -5.14; phenotype, replicate 1: reduced secretion

For mamo (GeneID 32353) #2, what was measured?
z-score, replicate 1: 0.21

What did the screen give for mamo (GeneID 32353) #3?
z-score, replicate 1: 0.28

What is on record for mamo (GeneID 32353) #4?
z-score, replicate 1: 0.23

For mamo (GeneID 32353) #5, how do the results read?
z-score, replicate 1: 0.01

How did the screen score CG31624 (GeneID 35393)?
z-score, replicate 1: 0.4

For TwdlS (GeneID 43209), what does the deposit list?
z-score, replicate 1: 0.13

Which result is listed for CG1316 (GeneID 38526)?
z-score, replicate 1: -0.67

With RpS17 (GeneID 39088), what does the deposit list?
z-score, replicate 1: -4.03; phenotype, replicate 1: reduced secretion

With CG17329 (GeneID 34958), how do the results read?
z-score, replicate 1: -0.03

For CG4611 (GeneID 38601), what was measured?
z-score, replicate 1: 0.24

For Rh4 + sina, what was measured?
z-score, replicate 1: 0.39

What did the screen give for CG14329 (GeneID 42116)?
z-score, replicate 1: -0.85

With CG12519 (GeneID 40114) #1, what was measured?
z-score, replicate 1: 0.38

For CG12519 (GeneID 40114) #2, what was measured?
z-score, replicate 1: 0.08

How did the screen score CG4927 (GeneID 36852)?
z-score, replicate 1: 0.29

With CG1663 (GeneID 36012) #1, what does the deposit list?
z-score, replicate 1: 0.07

Which result is listed for CG1663 (GeneID 36012) #2?
z-score, replicate 1: -0.45

For CG15533 (GeneID 43612), what was measured?
z-score, replicate 1: 0.43

What is on record for scramb2 (GeneID 38362)?
z-score, replicate 1: 0.23

With Samuel (GeneID 34530) #1, what was measured?
z-score, replicate 1: 0.26

With Samuel (GeneID 34530) #2, how do the results read?
z-score, replicate 1: 0.2

With Samuel (GeneID 34530) #3, what was measured?
z-score, replicate 1: -0.07

With Samuel (GeneID 34530) #4, what was measured?
z-score, replicate 1: -0.77

What did the screen give for CG3253 (GeneID 37861)?
z-score, replicate 1: 0.18
